PubChem BioAssay AID1259308, NCATS, 2017

Test: 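Genes whose loss raises luciferase production in HEK293 cells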 (primary screen)
Cells: human HEK293 embryonic kidney cells stably expressing firefly luciferase (HEK-CMV-Luc2-Hygro)
Reagent: single siRNA against human genes, 0.8 pmol siRNA per well
Time to read-out: 72 h
Measurement: 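Luciferase light (ONE-Glo) measured on one replicate plate set and viability (CellTiter-Glo) on the other, scaled to a negative control siRNA, with robust z-scores and luciferase per cell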
Direction: total luciferase, z-score and total luciferase, % of control: higher = more reporter protein produced
Active means: 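Active when the median/MAD z-score for overall luciferase is greater than 3; a gene was taken forward for validation with new siRNAs if at least two of its three siRNAs passed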
Calls: active = raised luciferase; inactive = no rise
In all, the deposit lists about 59,000 reagents; below is an unselected part. Over the whole deposit, about 1,510 (2.6%) got an active call. 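Calls use total luciferase alone and ignore viability, so some active siRNAs may act by altering cell number.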 Unmarked entries are inactive. Reagents against one gene are numbered here. Not all columns of the deposit are shown.

What is on record for XIAP (GeneID 331) #1?
total luciferase, z-score: -1.3; total luciferase, % of control: 56.1

For XIAP (GeneID 331) #2, how do the results read?
total luciferase, z-score: -0.114; total luciferase, % of control: 79.6

For XIAP (GeneID 331) #3, what was measured?
total luciferase, z-score: 0.157; total luciferase, % of control: 85

Which result is listed for PCCA (GeneID 5095) #1?
total luciferase, z-score: 0.767; total luciferase, % of control: 97.1

What did the screen give for PCCA (GeneID 5095) #2?
total luciferase, z-score: 0.776; total luciferase, % of control: 97.3

What did the screen give for PCCA (GeneID 5095) #3?
total luciferase, z-score: -0.699; total luciferase, % of control: 68

With RNF133 (GeneID 168433) #1, how do the results read?
total luciferase, z-score: 0.887; total luciferase, % of control: 99.5

For RNF133 (GeneID 168433) #2, what does the deposit list?
total luciferase, z-score: 0.789; total luciferase, % of control: 97.6

What is on record for RNF133 (GeneID 168433) #3?
total luciferase, z-score: 0.263; total luciferase, % of control: 87.1

What is on record for MARF1 (GeneID 9665) #1?
total luciferase, z-score: -0.665; total luciferase, % of control: 68.7

Which result is listed for MARF1 (GeneID 9665) #2?
total luciferase, z-score: -0.214; total luciferase, % of control: 77.6

For MARF1 (GeneID 9665) #3, how do the results read?
total luciferase, z-score: 1.14; total luciferase, % of control: 104

Which result is listed for ENTPD2 (GeneID 954) #1?
total luciferase, z-score: -1.05; total luciferase, % of control: 61

What is on record for ENTPD2 (GeneID 954) #2?
total luciferase, z-score: -0.754; total luciferase, % of control: 66.9

For ENTPD2 (GeneID 954) #3, what was measured?
total luciferase, z-score: -1.24; total luciferase, % of control: 57.3

Look-ups from the entries so far:
XIAP (GeneID 331) #2, total luciferase, % of control: 79.6
Under “total luciferase, % of control”, RNF133 (GeneID 168433) #3 shows 87.1
Entry of RNF133 (GeneID 168433) #1 under “total luciferase, z-score”: 0.887
Value of MARF1 (GeneID 9665) #3 in “total luciferase, % of control”: 104
PCCA (GeneID 5095) #2, total luciferase, z-score → 0.776
XIAP (GeneID 331) #1, total luciferase, % of control → 56.1

The results go on.
For MCEE (GeneID 84693) #1, what was measured?
total luciferase, z-score: -1.14; total luciferase, % of control: 59.1

Which result is listed for MCEE (GeneID 84693) #2?
total luciferase, z-score: 2.49; total luciferase, % of control: 131

How did the screen score MCEE (GeneID 84693) #3?
total luciferase, z-score: 0.0793; total luciferase, % of control: 83.5

With ZBTB32 (GeneID 27033) #1, what was measured?
total luciferase, z-score: 0.987; total luciferase, % of control: 102

How did the screen score ZBTB32 (GeneID 27033) #2?
total luciferase, z-score: 0.544; total luciferase, % of control: 92.7

For ZBTB32 (GeneID 27033) #3, how do the results read?
total luciferase, z-score: 0.0268; total luciferase, % of control: 82.4

For TCL1B (GeneID 9623) #1, what was measured?
total luciferase, z-score: 1.04; total luciferase, % of control: 103

How did the screen score TCL1B (GeneID 9623) #2?
total luciferase, z-score: -1.3; total luciferase, % of control: 56.1

What did the screen give for TCL1B (GeneID 9623) #3?
total luciferase, z-score: 0.267; total luciferase, % of control: 87.2

For DFFB (GeneID 1677) #1, how do the results read?
total luciferase, z-score: 0.0371; total luciferase, % of control: 82.6

What is on record for DFFB (GeneID 1677) #2?
total luciferase, z-score: 1.77; total luciferase, % of control: 117

With DFFB (GeneID 1677) #3, what does the deposit list?
total luciferase, z-score: -0.861; total luciferase, % of control: 64.8

For SLIRP (GeneID 81892) #1, how do the results read?
total luciferase, z-score: 0.0679; total luciferase, % of control: 83.2

How did the screen score SLIRP (GeneID 81892) #2?
total luciferase, z-score: -0.609; total luciferase, % of control: 69.8

With SLIRP (GeneID 81892) #3, how do the results read?
total luciferase, z-score: -0.771; total luciferase, % of control: 66.5

How did the screen score BRWD3 (GeneID 254065) #1?
total luciferase, z-score: -1.78; total luciferase, % of control: 46.4

With BRWD3 (GeneID 254065) #2, what was measured?
total luciferase, z-score: -0.848; total luciferase, % of control: 65

What did the screen give for BRWD3 (GeneID 254065) #3?
total luciferase, z-score: 0.799; total luciferase, % of control: 97.8

With CCDC71 (GeneID 64925) #1, what does the deposit list?
total luciferase, z-score: -0.421; total luciferase, % of control: 73.5

With CCDC71 (GeneID 64925) #2, what does the deposit list?
total luciferase, z-score: 0.353; total luciferase, % of control: 88.9

For CCDC71 (GeneID 64925) #3, what does the deposit list?
total luciferase, z-score: -0.793; total luciferase, % of control: 66.1

How did the screen score CYBC1 (GeneID 79415) #1?
total luciferase, z-score: 0.444; total luciferase, % of control: 90.7

What is on record for CYBC1 (GeneID 79415) #2?
total luciferase, z-score: 0.211; total luciferase, % of control: 86.1

With CYBC1 (GeneID 79415) #3, how do the results read?
total luciferase, z-score: -1.06; total luciferase, % of control: 60.8

With ALDH3A2 (GeneID 224) #1, what was measured?
total luciferase, z-score: 3.44 (active); total luciferase, % of control: 150

For ALDH3A2 (GeneID 224) #2, what does the deposit list?
total luciferase, z-score: 0.383; total luciferase, % of control: 89.5

With ALDH3A2 (GeneID 224) #3, what does the deposit list?
total luciferase, z-score: 4.12 (active); total luciferase, % of control: 164
